Patent US8273542B2 (priority 2005, dated 2012)
For at least one compound, name, drawing or mass did not settle the structure.

Columns and labels:
Type in all cases: cell-based
hT2R54 [1] = molecular target: T1, hT2R54 (Homo sapiens, UniProt P59534); details: 10 μM
T1 construct: expressed in transfected cells; host or cells: HEK293 cells stably expressing large T antigen and G16gust44; Transfection was transient for imaging
T1 sequence (P59534 18-338): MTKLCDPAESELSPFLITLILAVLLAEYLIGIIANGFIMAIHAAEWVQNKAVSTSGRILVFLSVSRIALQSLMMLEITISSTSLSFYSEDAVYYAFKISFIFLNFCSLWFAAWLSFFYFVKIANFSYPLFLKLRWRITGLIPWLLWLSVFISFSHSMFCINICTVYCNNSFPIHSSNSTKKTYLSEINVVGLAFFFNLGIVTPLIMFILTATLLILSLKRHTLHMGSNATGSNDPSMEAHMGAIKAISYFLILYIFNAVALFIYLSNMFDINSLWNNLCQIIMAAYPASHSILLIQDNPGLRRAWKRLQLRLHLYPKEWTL
Experimental: (§1) More particularly, the present inventors transfected HEK293 cells with a particular hT2R together with a chimeric G protein (G16 gust 44) which comprises the […] G protein sequence modified by the replacement of carboxy-44 amino acid residues with those of gustducin, and recorded responses of these cells to specific bitter ligands by calcium imaging methods.
(§2) Activation of these receptors by ranitidine is measured in a cell-based assay detecting changes in intracellular calcium concentration. […] The cells are then incubated with a fluorescent dye specific for calcium (Fluo-4 or Fura-2; Molecular Probes) that provides a fast, simple and reliable fluorescence-based method for detecting changes in calcium concentration inside the cell. […] This increase in calcium concentration changes the fluorescence properties of the calcium dye inside the cells. These changes are monitored using fluorescence microscopy and a specific design software (Imaging Workbench, Axon).
Transiently transfected cells are seeded into 24 well culture plates, and functional expression allowed to proceed for a total of 48 hours. The cells are then incubated with a fluorescent dye specific for calcium (Fluo-4 or Fura-2; Molecular Probes) that provides a fast, simple and reliable fluorescence-based method for detecting changes in calcium concentration inside the cell. […]

hT2R8 [2] = molecular target: T2, hT2R8 (Homo sapiens, UniProt Q9NYW2); experiment: dose response, stable HEK-G16gust44 line, calcium dye, FLIPR or VIPR
T2 construct: expressed in transfected cells; host or cells: HEK293 cells stably expressing large T antigen and chimeric G protein G16gust44; Transfection was transient for imaging
T2 sequence (Q9NYW2 1-309): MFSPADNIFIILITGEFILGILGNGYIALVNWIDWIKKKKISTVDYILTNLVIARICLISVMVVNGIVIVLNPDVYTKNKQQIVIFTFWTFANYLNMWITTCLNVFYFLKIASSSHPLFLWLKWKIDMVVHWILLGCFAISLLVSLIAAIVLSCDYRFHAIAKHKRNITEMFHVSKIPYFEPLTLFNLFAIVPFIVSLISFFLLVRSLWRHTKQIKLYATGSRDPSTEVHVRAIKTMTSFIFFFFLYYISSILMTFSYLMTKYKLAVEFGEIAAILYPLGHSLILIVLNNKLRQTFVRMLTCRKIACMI
Experimental: (§3) A HEK-G16gust44 line stably expressing high levels of hT2R8 or hT2R54 on its cell surface is used in high throughput screening assays. In this platform, the cells are seeded into 96 well or 384 well culture plates 18-24 hours before the assay. The cells are then incubated with the fluorescent calcium sensitive dye (Molecular Devices) and are stimulated and read in a standard fluorescence intensity plate reader (FLIPR or VIPR). Using this approach we have been able to further characterize the ranitidine effect on hT2R8 and hT2R54.
as §3, with “[…]” for “or hT2R54”, “VIPR).” for “VIPR). Using this approach we have been able to further characterize the ranitidine effect on hT2R8 and hT2R54.”

hT2R75 = molecular target: T3, hT2R75 (Homo sapiens, UniProt P59540); details: 10 μM
T3 construct: expressed in transfected cells; host or cells: HEK293 cells stably expressing large T antigen and G16gust44, transiently transfected
T3 sequence (P59540 1-309): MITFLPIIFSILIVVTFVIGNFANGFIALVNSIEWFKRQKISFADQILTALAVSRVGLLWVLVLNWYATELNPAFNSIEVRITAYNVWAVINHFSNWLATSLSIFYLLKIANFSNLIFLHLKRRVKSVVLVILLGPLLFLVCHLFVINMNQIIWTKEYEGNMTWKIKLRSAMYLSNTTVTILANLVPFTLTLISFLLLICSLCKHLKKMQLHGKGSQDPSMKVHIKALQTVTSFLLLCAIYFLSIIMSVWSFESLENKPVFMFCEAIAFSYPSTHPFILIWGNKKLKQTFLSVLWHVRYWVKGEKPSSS
Experimental: as §1, §2
(§4) Activation of these receptors by denatonium benzoate is measured in a cell-based assay detecting changes in intracellular calcium concentration. […] The cells are then incubated with a fluorescent dye specific for calcium (Fluo-4 or Fura-2; Molecular Probes) that provides a fast, simple and reliable fluorescence-based method for detecting changes in calcium concentration inside the cell. […]

hT2R8 [3] = molecular target: T2, hT2R8; details: 10 μM
Experimental: as §1, §2, §4

hT2R54 [4] = molecular target: T1, hT2R54; experiment: dose response, stable HEK-G16gust44 line, calcium dye, FLIPR or VIPR
Experimental: as §3
as §3, with “HEK-G16gust44 cell” for “HEK-G16gust44”, “of” for “of hT2R8 or”, “acetaminophen” for “ranitidine”, “on” for “on hT2R8 and”

## CNC(=C[N+](=O)[O-])NCCSCc1ccc(CN(C)C)o1 [ranitidine]
hT2R54 [1]
  response of hT2R54 in calcium imaging: responded
hT2R8 [2]
  dose response of hT2R8: typical dose-response relationship
hT2R75
  response of hT2R75 in calcium imaging: responded
hT2R8 [3]
  response of hT2R8 in calcium imaging: responded
hT2R54 [4]
  dose response of hT2R54: typical dose-response relationship
